# Data from patent US11174253B2, “Compound and pharmaceutical composition containing the same” (ALPHALA CO., LTD., priority 2017, dated 2021).
# At least one read-out could not be matched to a standard name with certainty.
# System: hepatocellular carcinoma cell line Hep3B
# Experiment: Growth inhibition of Hep3B cells, 48 hr treatment, Hoechst 33342 nucleus count (GE InCell 2200)
# Format: cell-based, human
# Conditions: Table 5, ratio of number of tumor cells treated with 10 μM compound to non-treated cells
# Method: The potency of selected compounds was defined by the growth inhibition ability to the hepatocellular carcinoma cell line Hep3B. The Hep3B cells were treated with selected compounds for 48 hr under 37° C., 5% CO2, and 95% relative humidity.
# The number of treated cells was determined by GE InCell 2200 system, and treated cells were stained with Hoechst 33342 which can reveal the remained nucleus in culture plate. The proportion of survival cells then were calculated with the ratio of treated/non-treated cells. The growth inhibition/cytotoxic effect of selected compounds were evaluated by the following protocol of NCI-60 screening platform. The human tumor cell lines are plating on a 96 well plate in a fixed density 24 hr prior compound treatment. Compounds with multiple concentrations are then added into each well for further 48 hr incubation. Cell viability is assessed by MTS method and the potency of compound is represented by GI50 and LC50 calculated by MTS result.
# Herein, the “Ratio in 10 μM (%)” in the following Tables 1-6 refers to the ratio of the number of tumor cells treated with 10 μM of selected compounds to the number of non-treated tumer cells.
row,SMILES,Ratio in 10 μM (%)
1,"O=C(Nc1nc(-c2ccc(Br)cc2)c(Oc2ccc(OC(F)(F)F)cc2)s1)c1ccc([N+](=O)[O-])s1 [Compound 5-2, N-(4-(4-bromophenyl)-5-(4-(trifluoromethoxy)phenoxy)thiazol-2-yl)-5-nitrothiophene-2-carboxamide]",60%
2,"O=C(Nc1nc(-c2ccc(Br)cc2)c(Oc2ccc(OC(F)(F)F)cc2)s1)c1ccc([N+](=O)[O-])s1 [Compound 5-18, N-(4-(4-bromophenyl)-5-(4-(trifluoromethoxy)phenoxy)thiazol-2-yl)-5-nitrothiophene-2-carboxamide]",37%
